Test results published in US7026125.
No signal at the amounts used counts as a negative. For part of these data: The exact form of at least one protein or probe is not confirmed.

Chains of the proteins cited; added tags and fusions are not shown. Lines headed by an entry give the natural chain unless they say otherwise; changes in a name come on top.
UniProt P19793: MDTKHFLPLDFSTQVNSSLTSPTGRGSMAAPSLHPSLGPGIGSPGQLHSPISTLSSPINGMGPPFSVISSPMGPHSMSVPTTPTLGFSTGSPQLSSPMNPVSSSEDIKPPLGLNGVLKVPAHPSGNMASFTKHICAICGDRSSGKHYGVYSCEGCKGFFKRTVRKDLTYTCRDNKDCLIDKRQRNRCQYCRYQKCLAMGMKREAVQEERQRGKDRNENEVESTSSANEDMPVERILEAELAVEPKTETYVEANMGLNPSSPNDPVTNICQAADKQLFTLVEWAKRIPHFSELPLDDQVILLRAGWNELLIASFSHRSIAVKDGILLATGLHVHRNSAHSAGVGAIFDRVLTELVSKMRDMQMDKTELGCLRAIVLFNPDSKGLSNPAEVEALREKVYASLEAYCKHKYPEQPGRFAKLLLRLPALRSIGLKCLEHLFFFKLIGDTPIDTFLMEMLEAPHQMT

How the values were obtained:
Assay in all cases: EMSA
[1] = test system: RARγ + RXRαm6 RXRα internal deletion lacking DNA binding domain; conditions: protein translated in vitro; label: 32P
[2] = test system: RARγ + RXRαm7 RXRα internal deletion of hinge and N-terminal half of ligand binding domain; conditions: protein translated in vitro; label: 32P
[3] = test system: RARγm1 + RXRα RARγ C-terminal deletion of 102 aa; conditions: protein translated in vitro; label: 32P
[4] = molecular target: RXRα (Homo sapiens) (UniProt P19793); conditions: no visible complex at concentration used; protein translated in vitro; label: 32P
[5] = test system: TRα + RXRαm1 RXRα C-terminal deletion of 60 aa; conditions: no heterodimer upshift or enhancement; protein translated in vitro; label: 32P
[6] = test system: TRα + RXRαm2 RXRα C-terminal deletion of 75 aa; conditions: no heterodimer upshift or enhancement; protein translated in vitro; label: 32P

Measured: binding result

GATCTCAGGTCATGACCTGAGATC (double strand) [palindromic TRE]
no binding: all assays above
